Some of the results follow. Small differences around the control level are noise.

Protein sequences, listed by entry. Tags and fused reporters are not part of them. Lines headed by an entry give the natural chain unless they say otherwise; changes in a name come on top.
UniProt Q9ERR7, whole entry: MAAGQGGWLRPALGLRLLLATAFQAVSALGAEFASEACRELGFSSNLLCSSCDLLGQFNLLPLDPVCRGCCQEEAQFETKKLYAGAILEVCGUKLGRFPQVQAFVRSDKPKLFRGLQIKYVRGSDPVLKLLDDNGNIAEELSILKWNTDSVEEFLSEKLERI
UniProt Q9DBL7: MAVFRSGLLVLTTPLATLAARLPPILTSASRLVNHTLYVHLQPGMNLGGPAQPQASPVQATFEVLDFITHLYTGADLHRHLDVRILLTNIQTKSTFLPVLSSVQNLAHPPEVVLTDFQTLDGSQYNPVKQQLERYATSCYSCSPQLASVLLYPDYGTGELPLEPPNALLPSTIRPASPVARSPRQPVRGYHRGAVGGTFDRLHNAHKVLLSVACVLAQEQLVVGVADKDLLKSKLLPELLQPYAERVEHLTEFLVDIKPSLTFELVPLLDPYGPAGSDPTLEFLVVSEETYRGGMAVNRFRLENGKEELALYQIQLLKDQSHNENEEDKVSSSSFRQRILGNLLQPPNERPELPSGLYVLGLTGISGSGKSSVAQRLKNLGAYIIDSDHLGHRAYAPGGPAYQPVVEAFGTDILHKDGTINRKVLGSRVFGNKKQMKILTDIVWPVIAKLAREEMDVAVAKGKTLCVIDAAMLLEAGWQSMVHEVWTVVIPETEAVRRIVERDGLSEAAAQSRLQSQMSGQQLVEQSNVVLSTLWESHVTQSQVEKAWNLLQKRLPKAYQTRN
UniProt Q9DD24: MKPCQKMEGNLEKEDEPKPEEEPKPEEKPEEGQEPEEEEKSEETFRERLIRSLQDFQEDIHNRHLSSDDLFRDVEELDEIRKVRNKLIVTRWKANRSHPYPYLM
UniProt Q9EPQ7, whole entry: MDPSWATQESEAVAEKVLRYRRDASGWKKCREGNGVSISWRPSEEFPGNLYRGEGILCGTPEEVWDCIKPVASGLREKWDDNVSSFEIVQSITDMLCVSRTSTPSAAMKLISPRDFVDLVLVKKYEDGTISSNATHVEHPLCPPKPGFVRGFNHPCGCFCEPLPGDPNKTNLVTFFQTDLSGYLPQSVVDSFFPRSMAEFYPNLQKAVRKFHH
UniProt Q9DCX8: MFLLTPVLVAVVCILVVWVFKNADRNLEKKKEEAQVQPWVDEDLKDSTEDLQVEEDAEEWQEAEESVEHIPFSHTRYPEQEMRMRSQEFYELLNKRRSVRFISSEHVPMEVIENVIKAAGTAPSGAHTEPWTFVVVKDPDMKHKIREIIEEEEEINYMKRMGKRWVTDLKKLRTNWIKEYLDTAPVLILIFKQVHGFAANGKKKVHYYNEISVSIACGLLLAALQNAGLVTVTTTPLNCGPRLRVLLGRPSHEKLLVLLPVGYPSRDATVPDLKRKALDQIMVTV
UniProt Q9ERS2, whole entry: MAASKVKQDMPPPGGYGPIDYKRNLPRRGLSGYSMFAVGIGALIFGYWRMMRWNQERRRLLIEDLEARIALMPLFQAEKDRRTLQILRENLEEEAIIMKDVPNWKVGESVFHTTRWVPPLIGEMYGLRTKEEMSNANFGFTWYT
UniProt Q9ERI6: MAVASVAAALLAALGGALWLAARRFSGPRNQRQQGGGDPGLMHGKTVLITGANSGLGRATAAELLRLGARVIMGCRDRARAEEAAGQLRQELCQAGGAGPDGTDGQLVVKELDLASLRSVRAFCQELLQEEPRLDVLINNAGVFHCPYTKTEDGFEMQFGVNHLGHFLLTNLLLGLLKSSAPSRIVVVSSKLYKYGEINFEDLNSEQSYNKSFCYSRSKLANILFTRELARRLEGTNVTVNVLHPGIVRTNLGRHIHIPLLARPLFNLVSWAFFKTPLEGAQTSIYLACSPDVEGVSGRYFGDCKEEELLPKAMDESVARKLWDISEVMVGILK
UniProt Q9DCT1: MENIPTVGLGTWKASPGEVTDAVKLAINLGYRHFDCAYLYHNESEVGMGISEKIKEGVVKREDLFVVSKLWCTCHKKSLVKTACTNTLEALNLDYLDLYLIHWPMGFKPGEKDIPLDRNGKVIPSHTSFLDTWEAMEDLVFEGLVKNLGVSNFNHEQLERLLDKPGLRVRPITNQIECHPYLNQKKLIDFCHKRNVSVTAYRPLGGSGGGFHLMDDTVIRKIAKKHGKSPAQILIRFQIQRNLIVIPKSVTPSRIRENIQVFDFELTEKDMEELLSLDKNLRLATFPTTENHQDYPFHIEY
UniProt Q9ERG0: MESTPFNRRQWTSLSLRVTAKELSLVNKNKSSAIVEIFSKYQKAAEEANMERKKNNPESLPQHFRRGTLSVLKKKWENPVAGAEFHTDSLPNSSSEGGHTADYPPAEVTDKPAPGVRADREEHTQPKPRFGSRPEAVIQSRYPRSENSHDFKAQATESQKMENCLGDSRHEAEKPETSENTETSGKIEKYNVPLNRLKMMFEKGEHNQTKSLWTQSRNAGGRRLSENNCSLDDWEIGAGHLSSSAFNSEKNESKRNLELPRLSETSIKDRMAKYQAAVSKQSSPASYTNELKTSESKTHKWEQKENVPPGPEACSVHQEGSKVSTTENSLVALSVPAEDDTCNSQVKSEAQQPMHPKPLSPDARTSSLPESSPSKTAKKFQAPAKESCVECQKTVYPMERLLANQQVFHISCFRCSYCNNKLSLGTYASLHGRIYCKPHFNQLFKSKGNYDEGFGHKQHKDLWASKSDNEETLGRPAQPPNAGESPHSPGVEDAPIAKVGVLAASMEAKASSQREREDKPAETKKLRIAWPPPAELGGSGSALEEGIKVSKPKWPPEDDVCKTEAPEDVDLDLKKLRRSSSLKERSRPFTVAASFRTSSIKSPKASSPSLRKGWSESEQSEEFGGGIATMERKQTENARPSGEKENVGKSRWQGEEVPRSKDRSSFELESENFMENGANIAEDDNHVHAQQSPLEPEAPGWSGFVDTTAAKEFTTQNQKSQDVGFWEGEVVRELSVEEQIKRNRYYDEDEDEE
UniProt Q9EPK2: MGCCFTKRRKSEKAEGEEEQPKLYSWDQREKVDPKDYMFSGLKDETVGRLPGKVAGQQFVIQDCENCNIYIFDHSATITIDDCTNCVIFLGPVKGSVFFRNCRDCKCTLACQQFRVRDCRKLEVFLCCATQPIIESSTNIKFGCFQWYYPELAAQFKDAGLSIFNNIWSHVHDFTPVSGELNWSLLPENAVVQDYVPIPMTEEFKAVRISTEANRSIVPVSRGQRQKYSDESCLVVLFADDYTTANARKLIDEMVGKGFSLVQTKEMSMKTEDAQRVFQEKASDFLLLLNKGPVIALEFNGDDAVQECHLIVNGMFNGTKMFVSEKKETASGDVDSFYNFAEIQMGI
UniProt Q9DC48: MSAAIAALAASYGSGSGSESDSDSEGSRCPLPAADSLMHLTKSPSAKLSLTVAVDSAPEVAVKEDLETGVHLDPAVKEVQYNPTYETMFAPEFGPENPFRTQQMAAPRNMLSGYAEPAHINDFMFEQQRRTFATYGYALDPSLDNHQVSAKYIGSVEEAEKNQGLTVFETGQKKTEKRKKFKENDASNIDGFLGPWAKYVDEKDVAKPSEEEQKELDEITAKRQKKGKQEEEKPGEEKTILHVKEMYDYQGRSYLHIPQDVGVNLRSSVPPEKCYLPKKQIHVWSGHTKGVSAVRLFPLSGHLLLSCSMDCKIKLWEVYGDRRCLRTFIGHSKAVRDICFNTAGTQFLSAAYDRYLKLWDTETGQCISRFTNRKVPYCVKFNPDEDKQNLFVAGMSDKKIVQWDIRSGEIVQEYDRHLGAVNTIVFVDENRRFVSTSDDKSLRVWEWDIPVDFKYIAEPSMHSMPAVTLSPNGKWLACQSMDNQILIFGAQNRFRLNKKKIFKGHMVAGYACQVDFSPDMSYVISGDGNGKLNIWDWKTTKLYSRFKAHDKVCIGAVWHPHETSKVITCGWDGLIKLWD
UniProt Q9DBS9: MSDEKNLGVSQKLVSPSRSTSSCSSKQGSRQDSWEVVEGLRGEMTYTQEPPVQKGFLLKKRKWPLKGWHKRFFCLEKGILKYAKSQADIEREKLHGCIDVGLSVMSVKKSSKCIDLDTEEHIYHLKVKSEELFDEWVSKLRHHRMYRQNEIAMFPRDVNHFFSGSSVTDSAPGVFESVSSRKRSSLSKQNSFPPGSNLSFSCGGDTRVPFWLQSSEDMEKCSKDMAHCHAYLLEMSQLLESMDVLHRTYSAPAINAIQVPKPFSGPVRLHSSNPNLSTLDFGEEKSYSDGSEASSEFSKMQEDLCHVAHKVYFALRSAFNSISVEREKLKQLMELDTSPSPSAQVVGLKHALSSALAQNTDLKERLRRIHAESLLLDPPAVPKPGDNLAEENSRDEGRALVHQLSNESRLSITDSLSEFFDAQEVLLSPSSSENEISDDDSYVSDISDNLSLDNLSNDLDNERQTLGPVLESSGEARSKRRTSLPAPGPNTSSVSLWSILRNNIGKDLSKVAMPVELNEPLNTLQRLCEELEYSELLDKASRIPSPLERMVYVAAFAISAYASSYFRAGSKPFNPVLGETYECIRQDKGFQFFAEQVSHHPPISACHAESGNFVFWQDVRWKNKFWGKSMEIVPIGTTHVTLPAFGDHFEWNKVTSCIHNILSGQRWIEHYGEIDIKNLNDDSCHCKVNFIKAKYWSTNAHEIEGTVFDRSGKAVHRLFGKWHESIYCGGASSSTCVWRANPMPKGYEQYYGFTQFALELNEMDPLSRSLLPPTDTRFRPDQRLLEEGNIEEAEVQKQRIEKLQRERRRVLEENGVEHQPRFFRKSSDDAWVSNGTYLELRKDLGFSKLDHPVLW

Compound in this test: CN[C@@H]1C[C@H]2O[C@@](C)([C@@H]1OC)n1c3ccccc3c3c4c(c5c6ccccc6n2c5c31)C(=O)NC4 [staurosporine]
In words: log2 fold change of tryptic peptide abundance, ligand vs vehicle (limited proteolysis) (log2 ratio); higher = more trypsin-susceptible (destabilized). Particulars: ligand concentration: 20 uM; sample: mouse liver crude lysate; replicate design: treated separately.
On to “UniProt Q9ERR7 (peptide sequence: FPQVQAFVR, peptide start residue: 98)”, for which the log2 fold change came out at 0.0708.
In the case of “UniProt Q9DBL7 (peptide sequence: GAVGGTFDR, peptide start residue: 193)” it was 0.0965.
To “UniProt Q9DD24 (peptide sequence: HLSSDDLFR, peptide start residue: 64)” belongs -0.158; to “UniProt Q9EPQ7 (peptide sequence: TSTPSAAMK, peptide start residue: 101)”, -0.373; to “UniProt Q9DCX8 (peptide sequence: KALDQIMVTV, peptide start residue: 276)”, 0.671.
To “UniProt Q9ERS2 (peptide sequence: IALMPLFQAEKDRR, peptide start residue: 69)” belongs -0.454; to “UniProt Q9ERI6 (peptide sequence: ELDLASLR, peptide start residue: 111)”, -0.285.
For the target “UniProt Q9DCT1 (peptide sequence: REDLFVVSK, peptide start residue: 61)”, the log2 fold change is 0.184.
In the case of “UniProt Q9ERG0 (peptide sequence: QWTSLSLR, peptide start residue: 10)”, the log2 fold change is -0.206.
Consider “UniProt Q9EPK2 (peptide sequence: LYSWDQR, peptide start residue: 23)”, for which the log2 fold change is -0.134.
To “UniProt Q9DC48 (peptide sequence: CPLPAADSLMHLTK, peptide start residue: 29)” belongs -0.259; to “UniProt Q9DBS9 (peptide sequence: SAFNSISVER, peptide start residue: 317)”, 0.382.

The record behind these values is the supplement of paper PMC12819154, “High-throughput peptide-centric local stability assay extends protein–ligand identification to membrane proteins, tissues and bacteria” (Nature Structural & Molecular Biology, 2025).
